Cleaved PARP in drug-treated melanoma cells

From a melanoma drug combination screen (doi:10.1371/journal.pone.0140310); values rounded.

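The test systems are human melanoma cell lines, treated with two drugs together for 72 h and then stained and imaged. Each value is the cleaved-PARP-positive fraction of nuclei relative to DMSO-treated wells, in %, so that 100 equals the control and higher values mean more apoptosis. Concentrations were fixed for each drug; these are the higher of two levels. No replicate spread is given; individual values may be noisy. Basal and induced levels differ widely between cell lines.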
An unselected part of the screen is shown.

Drug key:
LFM-A13, 10 µM: C/C(O)=C(\C#N)C(=O)Nc1cc(Br)ccc1Br
GSK650394, 0.8 µM: O=C(O)c1ccc(-c2c[nH]c3ncc(-c4ccccc4)cc23)cc1C1CCCC1
JZL184, 5 µM: O=C(Oc1ccc([N+](=O)[O-])cc1)N1CCC(C(O)(c2ccc3c(c2)OCO3)c2ccc3c(c2)OCO3)CC1
FH535, 5 µM: Cc1cc([N+](=O)[O-])ccc1NS(=O)(=O)c1cc(Cl)ccc1Cl

Cell line,LFM-A13 + FH535,GSK650394 + LFM-A13,JZL184 + GSK650394,FH535 + JZL184,FH535 + GSK650394,JZL184 + LFM-A13
501mel,299,89.9,351,98.0,66.5,126
COLO 800,37.0,148,74.0,138,31.9,38.6
IPC-298,211,51.2,141,138,41.1,43.7
SK-MEL-30,121,79.2,114,57.7,76.3,78.5
A101D,219,124,102,522,150,137
A2058,129,88.3,131,90.9,151,140
RVH-421,111,201,167,1730,136,88.1
UACC-257,76.3,52.9,78.0,321,154,74.7
MEL-HO,50.0,78.2,52.4,301,45.6,48.6
MZ2-MEL,143,78.0,144,74.9,334,63.8
WM1745,134,140,110,109,119,281
G-361,337,164,172,222,263,46.8
SK-MEL-5,429,32.6,97.4,111,219,222
WM1716,106,70.9,100,129,168,31.1
LOX IMVI,73.8,118,174,93.1,148,149
WM115,70.1,35.8,78.9,121,55.8,142
SK-MEL-2,132,96.4,118,58.7,63.6,104
WM3526,177,125,126,115,67.0,40.9
C32,103,101,81.8,96.1,96.9,170
COLO 792,137,122,76.9,104,74.7,23.7
COLO 829,155,69.6,90.8,138,121,66.8
SK-MEL-28,120,171,62.1,74.2,677,103
UACC-62,212,74.7,55.6,64.2,70.1,143
A375,130,95.1,58.3,157,67.4,66.3
MeWo,192,112,202,75.0,71.2,126
LB2518-MEL,87.8,63.7,49.6,45.4,83.1,52.6
WM451Lu,44.6,58.1,72.2,93.8,62.9,76.4
WM3619,140,150,97.5,121,139,92.7
IST-MEL1,102,65.3,269,216,274,28.7
RPMI-7951,79.2,82.5,58.4,32.7,89.1,66.5

For reference, 3 entries once more:

{"cell line": "G-361", "LFM-A13 + FH535": 337, "GSK650394 + LFM-A13": 164, "JZL184 + GSK650394": 172, "FH535 + JZL184": 222, "FH535 + GSK650394": 263, "JZL184 + LFM-A13": 46.8}
{"cell line": "RVH-421", "LFM-A13 + FH535": 111, "GSK650394 + LFM-A13": 201, "JZL184 + GSK650394": 167, "FH535 + JZL184": 1730, "FH535 + GSK650394": 136, "JZL184 + LFM-A13": 88.1}
{"cell line": "WM3619", "LFM-A13 + FH535": 140, "GSK650394 + LFM-A13": 150, "JZL184 + GSK650394": 97.5, "FH535 + JZL184": 121, "FH535 + GSK650394": 139, "JZL184 + LFM-A13": 92.7}